Test results from patent EP0874242A1, “Device and apparatus for the simultaneous detection of multiple analytes” (Randox Laboratories Ltd., priority 1997, dated 1998).

Key:
sulphonamide antibodies [1] = test: Multi-sulphonamide competitive immunoassay, antibodies on APTES ceramic substrates with dihydrazide linker, with or without periodate activation; format: binding
Procedure: Multi-sulphonamide standards (200 µl) and a cocktail of sulphonamide horseradish peroxidase conjugates (100 µl) were added to the reaction wells containing the device as appropriate and incubated for 15 minutes at room temperature. The standards contained 5, 10, 50 and 100 ng/ml for each of the 12 sulphonamides.
Thereafter the multi-sulphonamide devices were washed with PBS/PEG buffer to remove excess reagents and 300 µl chemiluminescent substrate [luminol (1.4mM)/urea hydrogen peroxide (9.6mM)] per device was introduced. The devices were imaged using a CCD camera with an exposure time of up to 4 minutes. Standard curves were obtained for each of the 12 individual sulphonamides. Calibration curves for each of the 12 individual sulphonamides are represented graphically in Figure 15. The % B/Bo value plotted on the Y-axis represents the % […] of the zero standard RLU (Relative light unit) value caused by each individual sulphonamide standard (plotted on the X-axis as log10).
In a further example, ceramic substrates silanated with APTES were reacted with a dihydrazide linker. Sulphonamide antibodies were treated with sodium periodate to render them reactive towards the hydrazide linker. Control sulphonamide antibodies were simply dialysed against sodium acetate buffer pH 5.5. The RLU results are shown in Tables 4 (not treated) and 5 (treated by periodate method). […] The control antibodies (no periodate activation) gave very poor standard curves when compared to the covalently immobilised sulphonamide antibodies.

sulphonamide antibodies [2] = test: Multi-sulphonamide competitive immunoassay, covalent versus passive immobilisation of the antibodies; format: binding; conditions: 10 ng/ml; for RLU Covalent: covalent immobilisation: direct spotting on to glycidoxy silane surface; for RLU Passive: passive immobilisation: direct spotting on to dichlorodimethylsilane-reacted surface
Text: The % of binding due to covalent or passive interactions are compared in Tables 6 and 7. Covalent interaction contributed on average 81.8% to the overall binding, clearly indicating covalent binding of the sulphonamide antibodies.

[3] = 10 ng/ml standard, antibodies treated by periodate method, covalently immobilised (Table 5)
[4] = 10 ng/ml standard, control antibodies not treated with periodate (Table 4)
[5] = 100 ng/ml standard, antibodies treated by periodate method, covalently immobilised (Table 5)
[6] = 100 ng/ml standard, control antibodies not treated with periodate (Table 4)

Compound | RLU (sulphonamide antibodies [1]; [3]) [RLU] | RLU (sulphonamide antibodies [1]; [4]) [RLU] | RLU (sulphonamide antibodies [1]; [5]) [RLU] | RLU Covalent (sulphonamide antibodies [2]) [RLU] | RLU Passive (sulphonamide antibodies [2]) [RLU] | RLU (sulphonamide antibodies [1]; [6]) [RLU]
Nc1ccc(S(=O)(=O)Nc2ccc(Cl)nn2)cc1 [Sulphachloropyridazine, sulphachloropyridazine] | 7565 | 1585 | 2096 | 8434 | 1051 | 
Cc1noc(NS(=O)(=O)c2ccc(N)cc2)c1C [Sulphisoxazole, sulphisoxazole] | 6686 | 1108 | 2270 | 5774 | 1031 | 
Cc1nnc(NS(=O)(=O)c2ccc(N)cc2)s1 [Sulphamethizole, sulphamethizole] | 5689 | 1257 | 4882 | 11132 | 1359 | 
Cc1cc(C)nc(NS(=O)(=O)c2ccc(N)cc2)n1 [Sulphamethazine, sulphamethazine] | 2810 |  | 2213 | 7535 | 574 | 
Nc1ccc(S(=O)(=O)Nc2nccs2)cc1 [Sulphathiazole, sulphathiazole] | 4602 | 814 | 2353 | 8087 | 675 | 
COc1ccc(NS(=O)(=O)c2ccc(N)cc2)nn1 [Sulphamethoxypyridazine, sulphamethoxypyridazine] | 10509 | 928 | 5687 | 13408 | 770 | 
Cc1ccnc(NS(=O)(=O)c2ccc(N)cc2)n1 [Sulphamerazine, sulphamerazine] | 5521 | 1137 | 3240 | 11077 | 988 | 1224
COc1ncnc(NS(=O)(=O)c2ccc(N)cc2)c1OC [Sulphadoxine, sulphadoxine] | 3240 | 1456 | 2135 | 11131 | 904 | 
COc1cc(NS(=O)(=O)c2ccc(N)cc2)nc(OC)n1 [Sulphadimethoxine, sulphadimethoxine] | 2554 |  | 1983 | 5832 | 581 | 781
Nc1ccc(S(=O)(=O)Nc2cnc3ccccc3n2)cc1 [Sulphaquinoxaline, sulphaquinoxaline] | 6112 | 828 | 5588 | 8716 | 548 | 968
